Earlier results on one compound are cited in US20190224153A1, “L-DOPA DERIVATIVES FOR THE TREATMENT OF NEUROLOGICAL DISEASES” (BERLIREM GMBH, priority 2016, published 2019).

The conditions of this series: oral L-DOPA therapy; cited from earlier work.

For `N[C@@H](Cc1ccc(O)c(O)c1)C(=O)O` [L-DOPA, L-Dihydroxy-Phenylalanine], the terminal half-life result is “about 30 mins”.
